# Some entries share one result that the patent states for a list of compounds. Peptide text beside a SMILES is read from it.
# Molecular target: T1, human APJ receptor (hAPJ) (Homo sapiens, UniProt P35414)
# T1 construct: expressed in transfected cells
# T1 sequence (P35414 1-380): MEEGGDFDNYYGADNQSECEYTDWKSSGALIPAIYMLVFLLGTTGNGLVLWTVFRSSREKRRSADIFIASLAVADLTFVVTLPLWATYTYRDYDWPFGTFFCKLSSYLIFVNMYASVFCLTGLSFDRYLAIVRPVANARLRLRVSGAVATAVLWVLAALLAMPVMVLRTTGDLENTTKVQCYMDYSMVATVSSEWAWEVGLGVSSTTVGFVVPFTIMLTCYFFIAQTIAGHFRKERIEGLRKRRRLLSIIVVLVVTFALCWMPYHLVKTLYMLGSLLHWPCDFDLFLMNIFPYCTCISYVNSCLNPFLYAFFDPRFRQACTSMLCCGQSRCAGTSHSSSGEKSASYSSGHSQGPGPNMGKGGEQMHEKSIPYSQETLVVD
# Assay: HTRF cAMP assay: inhibition of NKH477-stimulated cAMP in HEK cells stably expressing hAPJ
# Type: cell-based
# Conditions: HTRF cAMP Assay, per data of Table 6; read-out: EC50 (hAPJ), inhibition of cAMP production, bound stated
# Text: HTRF cAMP Assay and IP-One Assay (Cisbio)
# HTRF (homogeneous time resolved fluorescence) is a technology developed by Cisbio Bioassays based on TR-FRET (time-resolved fluorescence resonance energy transfer). Cisbio Bioassays has developed a wide selection of HTRF-based assays compatible with whole cells, thereby enabling functional assays to run under more physiological conditions. The IP-One assays are competitive immunoassays using cryptate-labeled anti-IP1 monoclonal antibody and d2-labeled IP1. IP1 is a relatively stable downstream metabolite of IP3, and accumulates in cells following Gq receptor activation.
# cAMP kits based on a competitive immunoassay using cryptate-labeled anti-cAMP antibody and d2-labeled cAMP were used to assay the effects of APJ compounds of the present invention. […] Cells are treated with 1 nG/mL doxycycline and seeded in all white 96 well plates @40 k/well overnight.
row,Compound,EC50
1,CCCCCCCCCCCCCCCC(=O)N[C@@H](CC(=O)O)C(=O)N[C@H](C(=O)N[C@@H](Cc1ccccc1)C(=O)N[C@@H](CCCNC(=N)N)C(=O)N[C@@H](CO)C(=O)N[C@@H](CO)C(=O)N[C@@H](CCC(=O)O)C(=O)N[C@H](CCCCN)C(=O)N[C@@H](CCCNC(=N)N)C(=O)N[C@@H](CCCNC(=N)N)C(=O)N[C@@H](CO)C(=O)N[C@@H](C)C(=O)N[C@@H](CC(=O)O)C(=O)N[C@@H](CCC(N)=O)C(=O)N[C@@H](Cc1ccccc1)C(=O)N[C@H](C(N)=O)[C@@H](C)CC)C(C)C [Compound 13] (HELM PEPTIDE1{[CCCCCCCCCCCCCCCC(=O)[*:2]].D.V.F.R.S.S.E.[dK].R.R.S.A.D.Q.F.I.[am]}$$$$V2.0),≤ 0.05 µM
2,CCCCCCCCCCCCCCCC(=O)N[C@H](C(=O)N[C@H](C(=O)N[C@@H](Cc1ccccc1)C(=O)N[C@@H](CCCNC(=N)N)C(=O)N[C@@H](CO)C(=O)N[C@@H](CCC(=O)O)C(=O)N[C@H](CCCCN)C(=O)N[C@@H](CCCNC(=N)N)C(=O)N[C@@H](CCCNC(=N)N)C(=O)N[C@@H](CO)C(=O)N[C@@H](C)C(=O)N[C@@H](CC(=O)O)C(=O)N[C@@H](CCC(N)=O)C(=O)N[C@@H](Cc1ccccc1)C(=O)N[C@H](C(N)=O)[C@@H](C)CC)C(C)C)[C@@H](C)O [Compound 14] (HELM PEPTIDE1{[CCCCCCCCCCCCCCCC(=O)[*:2]].T.V.F.R.S.E.[dK].R.R.S.A.D.Q.F.I.[am]}$$$$V2.0),≤ 0.05 µM
3,"CCCCCCCCCCCCCCCC(=O)N[C@H](C(=O)N[C@H](C(=O)N[C@@H](Cc1ccccc1)C(=O)N[C@@H](CCC(N)=O)C(=O)N[C@@H](CO)C(=O)N[C@@H](CO)C(=O)N[C@@H](CCC(=O)O)C(=O)N[C@H](CCCCN)C(=O)N[C@@H](CCCNC(=N)N)C(=O)N[C@@H](CCCNC(=N)N)C(=O)N[C@@H](CO)C(=O)N[C@@H](C)C(=O)N[C@@H](CC(=O)O)C(=O)N[C@@H](Cc1ccccc1)C(=O)N[C@H](C(N)=O)[C@@H](C)CC)C(C)C)[C@@H](C)O [Compound 15, Pal-TVFQSSEkRRSADFI-amide] (HELM PEPTIDE1{[CCCCCCCCCCCCCCCC(=O)[*:2]].T.V.F.Q.S.S.E.[dK].R.R.S.A.D.F.I.[am]}$$$$V2.0)",≤ 0.05 µM
4,"CCCCCCCCCCCCCCCC(=O)N[C@H](C(=O)N[C@H](C(=O)N[C@@H](Cc1ccccc1)C(=O)N[C@@H](CCC(N)=O)C(=O)N[C@@H](CO)C(=O)N[C@@H](CCC(=O)O)C(=O)N[C@H](CCCCN)C(=O)N[C@@H](CCCNC(=N)N)C(=O)N[C@@H](CCCNC(=N)N)C(=O)N[C@@H](CO)C(=O)N[C@@H](C)C(=O)N[C@@H](CC(=O)O)C(=O)N[C@@H](Cc1ccccc1)C(=O)N[C@H](C(N)=O)[C@@H](C)CC)C(C)C)[C@@H](C)O [Compound 16, TVFQSEkRRSADFI] (HELM PEPTIDE1{[CCCCCCCCCCCCCCCC(=O)[*:2]].T.V.F.Q.S.E.[dK].R.R.S.A.D.F.I.[am]}$$$$V2.0)",≤ 0.05 µM
5,CCCCCCCCCCCCCCCC(=O)N[C@@H](CC(=O)O)C(=O)N[C@H](C(=O)N[C@@H](Cc1ccccc1)C(=O)N[C@@H](CCC(N)=O)C(=O)N[C@@H](CO)C(=O)N[C@@H](CCC(=O)O)C(=O)N[C@H](CCCCN)C(=O)N[C@@H](CCCNC(=N)N)C(=O)N[C@@H](CCCNC(=N)N)C(=O)N[C@@H](CO)C(=O)N[C@@H](C)C(=O)N[C@@H](CC(=O)O)C(=O)N[C@@H](CCC(N)=O)C(=O)N[C@@H](Cc1ccccc1)C(=O)N[C@H](C(N)=O)[C@@H](C)CC)C(C)C [Compound 17] (HELM PEPTIDE1{[CCCCCCCCCCCCCCCC(=O)[*:2]].D.V.F.Q.S.E.[dK].R.R.S.A.D.Q.F.I.[am]}$$$$V2.0),≤ 0.05 µM

# Reference: patent US20160159861A1, “APJ Receptor Compounds” (priority 2013, published 2016)
